B1: YKL117W (protein, UniProt P28707 2-216, looked up)
Co-chaperone protein SBA1: SDKVINPQVAWAQRSSTTDPERNYVLITVSIADCDAPELTIKPSYIELKAQSKPHVGDENVHHYQLHIDLYKEIIPEKTMHKVANGQHYFLKLYKKDLESEYWPRLTKEKVKYPYIKTDFDKWVDEDEQDEVEAEGNDAAQGMDFSQMMGGAGGAGGAGGMDFSQMMGGAGGAGSPDMAQLQQLLAQSGGNLDMGDFKENDEEDEEEEIEPEVKA
B2: YHR064C (protein, UniProt P38788 1-538, looked up)
Ribosome-associated complex …: MSSPVIGITFGNTSSSIAYINPKNDVDVIANPDGERAIPSALSYVGEDEYHGGQALQQLIRNPKNTIINFRDFIGLPFDKCDVSKCANGAPAVEVDGKVGFVISRGEGKEEKLTVDEVVSRHLNRLKLAAEDYIGSAVKEAVLTVPTNFSEEQKTALKASAAKIGLQIVQFINEPSAALLAHAEQFPFEKDVNVVVADFGGIRSDAAVIAVRNGIFTILATAHDLSLGGDNLDTELVEYFASEFQKKYQANPRKNARSLAKLKANSSITKKTLSNATSATISIDSLADGFDYHASINRMRYELVANKVFAQFSSFVDSVIAKAELDPLDIDAVLLTGGVSFTPKLTTNLEYTLPESVEILGPQNKNASNNPNELAASGAALQARLISDYDADELAEALQPVIVNTPHLKKPIGLIGAKGEFHPVLLAETSFPVQKKLTLKQAKGDFLIGVYEGDHHIEEKTLEPIPKEENAEEDDESEWSDDEPEVVREKLYTLGTKLMELGIKNANGVEIIFNINKDGALRVTARDLKTGNAVKGEL
B3: YGR281W (protein, UniProt P53049 1-1477, looked up)
Oligomycin resistance …: MTITVGDAVSETELENKSQNVVLSPKASASSDISTDVDKDTSSSWDDKSLLPTGEYIVDRNKPQTYLNSDDIEKVTESDIFPQKRLFSFLHSKKIPEVPQTDDERKIYPLFHTNIISNMFFWWVLPILRVGYKRTIQPNDLFKMDPRMSIETLYDDFEKNMIYYFEKTRKKYRKRHPEATEEEVMENAKLPKHTVLRALLFTFKKQYFMSIVFAILANCTSGFNPMITKRLIEFVEEKAIFHSMHVNKGIGYAIGACLMMFVNGLTFNHFFHTSQLTGVQAKSILTKAAMKKMFNASNYARHCFPNGKVTSFVTTDLARIEFALSFQPFLAGFPAILAICIVLLIVNLGPIALVGIGIFFGGFFISLFAFKLILGFRIAANIFTDARVTMMREVLNNIKMIKYYTWEDAYEKNIQDIRTKEISKVRKMQLSRNFLIAMAMSLPSIASLVTFLAMYKVNKGGRQPGNIFASLSLFQVLSLQMFFLPIAIGTGIDMIIGLGRLQSLLEAPEDDPNQMIEMKPSPGFDPKLALKMTHCSFEWEDYELNDAIEEAKGEAKDEGKKNKKKRKDTWGKPSASTNKAKRLDNMLKDRDGPEDLEKTSFRGFKDLNFDIKKGEFIMITGPIGTGKSSLLNAMAGSMRKTDGKVEVNGDLLMCGYPWIQNASVRDNIIFGSPFNKEKYDEVVRVCSLKADLDILPAGDMTEIGERGITLSGGQKARINLARSVYKKKDIYLFDDVLSAVDSRVGKHIMDECLTGMLANKTRILATHQLSLIERASRVIVLGTDGQVDIGTVDELKARNQTLINLLQFSSQNSEKEDEEQEAVVAGELGQLKYESEVKELTELKKKATEMSQTANSGKIVADGHTSSKEERAVNSISLKIYREYIKAAVGKWGFIALPLYAILVVGTTFCSLFSSVWLSYWTENKFKNRPPSFYMGLYSFFVFAAFIFMNGQFTILCAMGIMASKWLNLRAVKRILHTPMSYIDTTPLGRILNRFTKDTDSLDNELTESLRLMTSQFANIVGVCVMCIVYLPWFAIAIPFLLVIFVLIADHYQSSGREIKRLEAVQRSFVYNNLNEVLGGMDTIKAYRSQERFLAKSDFLINKMNEAGYLVVVLQRWVGIFLDMVAIAFALIITLLCVTRAFPISAASVGVLLTYVLQLPGLLNTILRAMTQTENDMNSAERLVTYATELPLEASYRKPEMTPPESWPSMGEIIFENVDFAYRPGLPIVLKNLNLNIKSGEKIGICGRTGAGKSTIMSALYRLNELTAGKILIDNVDISQLGLFDLRRKLAIIPQDPVLFRGTIRKNLDPFNERTDDELWDALVRGGAIAKDDLPEVKLQKPDENGTHGKMHKFHLDQAVEEEGSNFSLGERQLLALTRALVRQSKILILDEATSSVDYETDGKIQTRIVEEFGDCTILCIAHRLKTIVNYDRILVLEKGEVAEFDTPWTLFSQEDSIFRSMCSRSGIVENDFENRS
B4: YGR238C (protein, UniProt P50090 1-882, looked up)
Kelch repeat-containing …: MVPFKLTNKVPTDTGPSLISAQSVPRPIVFMDNRNNTRIVTPTLPPNQHRGISGASTALPWSPESKNTGKYIWNRVKLKNSPFPRYRHSSSFIVTNDNRIFVTGGLHDQSVYGDVWQIAANADGTSFTSKRIDIDQNTPPPRVGHASTICGNAYVVFGGDTHKLNKNGLLDDDLYLFNINSYKWTIPQPIGRRPLGRYGHKISIIASNPMQTKLYLFGGQVDETYFNDLVVFDLSSFRRPNSHWEFLEPVGDLPPPLTNHTMVAYDNKLWVFGGETPKTISNDTYRYDPAQSEWSKVKTTGEKPPPIQEHASVVYKHLMCVLGGKDTHNAYSNDVYFLNLLSLKWYKLPRMKEGIPQERSGHSLTLMKNEKLLIMGGDKTDYASPNIHDLQTSETDQGEGTLLYTLDLSSLNELCPGIMCESLHAGESFSNSLSGGFTPSKSTESENQEIINILTPRLPDSKVLSYNDIDEGAGSYSSALDDKAFERKSDREEKKPQSSKVDSSINKESPGTGIKVSKKNFPVLRGLTVDSEEYGSSSYKDTSCQKGIPKNLFDDLNLNLQTLRLEAQQKELETARHISQLEKEVQRLMVIKEASKDSNFQTARLKNLEIQKTFLESRINDLKNLLMVKLSQASKLCDQITIQNNGLKTCSEHVTIKRDIIDLENKCDVLKRQNEILVNNMQKITPELHTYLNESSCYLGKLLKSYPTSARPPSSEKDNQIYEKDSLNKIEKVINEMHETVRAKEKLHLETQKLNDERDSLRANLLDNNNKLDALRKLSDGSSKSMDLTKKAIHLSQSELEKYRKNNDDLQKEIDRIKTEQAEQDDKQEQRGAITHGNFDAFHRMKINNLKAELYMSKENRDSLKDELLALKKKLYTLEQKK
B5: YHR158C (protein, UniProt P38853 1-1164, looked up)
Kelch repeat-containing …: MAGFSFAKKFTHKKHGKTPSDASISDQSREASLSTPPNEKFFTKQETPQKGRQFSQGYHSNVNKTSSPPMFARKQVSESRIQPSAVPPQQRNVSGPSTTLHKQLSKQREYTVWNRIKLQNSPFPRYRHVASAYVTDKNQIYVIGGLHDQSVYGDTWILTAFDNATRFSTTTIDISEATPPPRVGHAAVLCGNAFVVFGGDTHKVNKEGLMDDDIYLLNINSYKWTVPAPVGPRPLGRYGHKISIIATTQMKTKLYVFGGQFDDTYFNDLAVYDLSSFRRPDSHWEFLKPRTFTPPPITNFTMISYDSKLWVFGGDTLQGLVNDVFMYDPAINDWFIIDTTGEKPPPVQEHATVVYNDLMCVVGGKDEHDAYLNSVYFLNLKSRKWFKLPVFTAGIPQGRSGHSLTLLKNDKILIMGGDKFDYARVEEYDLHTSDIDMQRGTIVYTLDLARIKDLCPGVMDVPTDTPTPRNGNLDLATPVTPTSHQTKNMNVPISAAPLASAPSPAPKDFSDADRLNREVHNRNVSTEHQNQSHPVNSESHLIAEPNILTPYVPSESSQTPVMKITSNKPFDTPTIQKEPDLSETMDPTVGNQRIPSSIYGDNLTPANQIKNNSPILETLPSNEIKTPQNGNIEEIKHLPDADEKIDSTTTFDQEINGDKLGTSSMSKVEEDGNVADEDDEIGVAQMASSPSKDQFKIKHYNESSELSQNNTEIDKLSEPVDITIKKSDTAGHDSANHVIDASDEKNVSPMGDVPTDTKNEEASVPINRDATTEVVDRALFEKLRSELQSLKELTHEKALEAGAHIKELETELWQLKSQKNSGTTKEIDELDSVRLQSKCEILEADNHSLEDKVNELEELVNSKFLDIENLNEVIQFQNEKIKSLELEPNYKEKLEELQIEHENLSRENERLKNESKQHNEDIINNVANYSSQLGSLISHWKENRANSSFLESSSSLISVSDENGEKTVGEPYGDQSRHHRVVINKLTNRLDDLLERSQELTISKEKLSSEYHALKMEHSSLSQDVLVKENEIKKIQNDYKESISSMDSASKALMVSQRELEKYKSLNKKLIDELDELKFKNGVCSENFENGLRSTEESSNNVKNSNSIRENQFNIKINDLKAELFITNQERDDLKSEVLELKKRLLNLENNTKQVNEDADSDLL
B6: YCR030C (protein, UniProt P25623 1-870, looked up)
Suppressor of yeast profilin …: MTEQRTKYADSILTTKSPYEATETIRIRLSQVKLLNKDFYLLFKELANLKRNYAQQLRKIIAENEDITKILNAQMIESNVLTPQEMSAFRFNSLGELRNVWDTVIEELKSDLKSSTEYYNTLDQQVVRELKESVENNTSWRESKDLHSKLSKNAASIEHYSKNNENSSHLEEARRQWDQQSPYLFELFETIDYNRLDTLKNCMLRFQTSFSDYLLNTTKECETVMTKFLAFEPQSEIDRFAKDASQYNFQLSSSSKEVVPNNASPASATGARPVSVSNGAANTEREKKSPQKDKRKSAFGNIGHRLASASSSLTHNDLMNNEFSDSTNNSSLKSKKSSHTLRSKVGSIFGRNKTKNKRQQQSSSNSHIQASITETPNNSSTRVSSTATSSIYQKQRRPTYSSSKSNNWTPGEASDTPPLPPHATPKNVDAPVTADTPPAQTFTPSEVPPSTPQQSSPPTAKEPDSSNLPKTVPISISQPPLQPQSKTKPLPVEPASPSISLPTATVDNQPSGQVDSRPLHIRAPALPPSRKQNFIHNRDSQLYDSLPNHGSGATPTSSSLSSIPQERPVSTLSSQITGELRELNPQATGSSTSLVGQSLFQHSSLDTSQFGLNASIAEVLNASFKDGMLQNSQLIGEIALNYLPNSVMNSPLPIGINLRINNGAKFEKVILNQAFIERVAPEEFKVNPSFIDSRTLGAIKYSIKEPIAPIVIHPVWRFESHQASVVLTVKMSPSLPDEISQIVIEDLVVFVNIDGANATSALSKPQGSFSKEKKRITWRFKEPVVLTRNGEGQRLIARFITDGLAHESAKGVITKFTISETDNVALPHSGAGSGITLTCQELDENNPFGGEWLDVNTKRTLTTGNYHGLA
B7: YER149C (protein, UniProt P40091 1-420, looked up)
Protein PEA2: MHKFDLELSRRANPLLFSAERYEEYPLKYDELKQYLLSQNPSHPHHNSRPYTSIDYFDYLLYRSKNDESEIDLDKKLVSEFALYYVQKEHLNSDDLNPTLNELLKLQPKSADWYEMMLRILESINTTGIDQLTKENNNSFPNSKRARSSTNMGGTDKFNKGAYHTDKADDDKNEILQELTSFLMSNSIQKGIDIKPIPLDDPVKFLKNGINSILDTCVSLEKNTSSPPISPNAAAIQEEDSSKKLEELETAFSDLQLAHNFLTKQFENDRAEYVQDIEKLTRTNRELQDKLLNNHSNLSKTEKKLHELEQENKELEKANNKLNSSRHNFGMSSPASSPVTWDPSSPSSVGSPTSGSGSRSLSIMTSEFKKVLTSTQRKYEKELSDEREHRFKLERELALLKNAEANTSLALNRDDPPDML

The record followed here is PMC7954794, “Protein context shapes the specificity of SH3 domain-mediated interactions in vivo” (Nature Communications, 2021).

Some results come without the dose or concentration used.

For the first data set, the system named is BBC1. In words: DHFR-PCA on solid medium, bait BBC1 (Fig. 1B). The format is cell-based, Saccharomyces cerevisiae. On the set-up: key: 0: SH3-independent; 1: SH3-dependent PPIs; 2: SH3-inhibited PPIs. As to conditions: bait BBC1, label = prey. An excerpt:
(§1) Supplement 41467_2021_21873_MOESM8_ESM.xlsx, sheet "Fig1B" | column: medsize; medrep; Ratio; Score
B1: the Score is 1.
The same measure, in the same setting: for B2 the value was 0; for B3, 1.

The test system of another data set is BOI1. The data set can be described thus: DHFR-PCA on solid medium, bait BOI1 (Fig. 1B). As to conditions: bait BOI1, label = prey. The format is cell-based, Saccharomyces cerevisiae. Set-up: key: 0: SH3-independent; 1: SH3-dependent PPIs; 2: SH3-inhibited PPIs.
Excerpt: as §1
As to B3, the Score stood at 2.

In the next data set the test system is BOI2. In words: DHFR-PCA on solid medium, bait BOI2 (Fig. 1B). As to conditions: bait BOI2, label = prey. On the set-up: key: 0: SH3-independent; 1: SH3-dependent PPIs; 2: SH3-inhibited PPIs. The format is cell-based, Saccharomyces cerevisiae.
Excerpt: as §1
In turn, B2 had a Score of 0.
Same read-out and setting: for B3 the value was 0.

A further data set deals with BUD14. The data set can be described thus: DHFR-PCA on solid medium, bait BUD14 (Fig. 1B). The format is cell-based, Saccharomyces cerevisiae. On the set-up: key: 0: SH3-independent; 1: SH3-dependent PPIs; 2: SH3-inhibited PPIs. To be noted: bait BUD14, label = prey.
Excerpt: as §1
As to B1, the Score is 0.
Same read-out and setting: for B2 the value was 1; for B4, 0.
On to B5, for which the Score was 0.
Consider B6, for which the Score was 0.
Turning to B7, the Score was found to be 1.
